This is one part of the list. Further columns of the screen follow, without active or inactive calls. Compounds called inactive in the main read-out are mostly missing here. Potencies come from curve fits of mixed quality, noted in brackets.
Experiment: qHTS Assay to Find Inhibitors of Chronic Active B-Cell Receptor Signaling
Conditions: ABC-DLBCL IkBa-CBG/CBR reporter, luminescence ratio (green luciferase fused to IkBa over red control in TMD8 lymphoma cells), 4 h
Outline: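 Compounds up to 46 uM were incubated four hours with TMD8 cells whose green CBG68 luciferase is fused to IkappaBalpha; red CBR luminescence normalised the signal, and concentration-effect curves were fitted to fusion, red and ratio data.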

[1] = measured here: CBR red luminescence, cell number
[2] = measured here: IkBa-CBG green luminescence

SMILES	AC50 [1]	AC50 [2]
COc1cccc(CNC(=O)c2nnn(-c3ccc(OC(F)(F)F)cc3)c2N)c1	0.82 µM [rising, full curve, poor fit]	–
O=C(Nc1ccccn1)c1ccc2ccccc2c1O	11.2 µM [falling, partial curve]	–
CCN1CCN(C(=O)/C=C/c2cccc(Cl)c2)CC1	22.4 µM [rising, single point]	–
O=C(Nc1cccc2ccccc12)/C(Cl)=C/c1ccccc1	16.4 µM [falling, partial curve, poor fit]	–
O=C(OCC(=O)N1CCN(C(=O)c2ccco2)CC1)c1ccccc1NCCO	16.4 µM [falling, single point]	–
O=C(O)CCn1cc(/C=C2\NC(=S)N(c3ccccc3)C2=O)c(-c2ccc(Br)cc2)n1	0.631 µM [falling, partial curve, poor fit]	–
Cc1cc(=O)oc2cc(OCCC[n+]3ccccc3)ccc12	5.62 µM [rising, single point]	–
C=C1c2cc3c(cc2NC(=S)N1Cc1ccccc1)OCO3	25.1 µM [falling, single point]	15.8 µM [rising, partial curve, poor fit]
Cc1cc(=O)[nH]c(N/N=C/C=C/c2ccccc2)n1	35.5 µM [falling, single point]	–
Cn1c(N)c(C(=O)NCc2ccccc2Cl)sc1=S	1.3 µM [falling, full curve, poor fit]	–
Oc1c(Br)cccc1/C=N/c1ncn[nH]1	2 µM [rising, partial curve, poor fit]	–
Cc1c(NC(=O)C(C)OC(=O)CC2Sc3ccccc3NC2=O)c(=O)n(-c2ccccc2)n1C (configuration not stated)	35.5 µM [rising, partial curve, poor fit]	–
O=C(NC(=S)N1CCN(Cc2ccccc2)CC1)c1ccco1	–	25.1 µM [falling, single point]
Cc1onc(COc2ccccc2O)c1Br	6.51 µM [rising, full curve, poor fit]	–
Cc1ccc(-c2csc(N3CCC(C(N)=O)(N4CCCCC4)CC3)n2)cc1	18.4 µM [falling, single point]	–
O=C(Nc1cccc(Cl)c1)Nc1ccc2c(c1)OCO2	29.1 µM [falling, single point]	–
C(=N\Nc1ccccc1)/c1ccc(N2CCOCC2)cc1	3.16 µM [falling, partial curve, poor fit]	–
CC1CC1C(=O)OCC(=O)c1c(N)n(C)c(=O)n(C)c1=O (configuration not stated)	0.112 µM [falling, full curve, poor fit]	–
Cc1ccc(/C=C/C(=O)N2CCN(Cc3ccccc3)CC2)o1	20.6 µM [falling, partial curve]	–
CC(C)(C)C(Cn1ccnc1)NC(=O)c1ccc2nc(C3CC3)oc2c1 (configuration not stated)	0.112 µM [falling, full curve, poor fit]	–
CC(C)c1ccc(Nc2nc(NCc3ccco3)nc(N3CCOCC3)n2)cc1	8.91 µM [rising, partial curve, poor fit]	–
COc1ccccc1C(=O)NC(=Nc1nc2ccccc2o1)NC(=O)c1ccccc1OC	16.4 µM [falling, single point]	–

SMILES	AC50 [1]	AC50 [2]
CC(C)/C=N/NC(=O)c1ccc(Cl)cc1	0.461 µM [falling, partial curve, poor fit]	–
COC(=O)c1[nH]c2ccc(F)cc2c1NS(=O)(=O)c1ccc(OC)cc1	–	18.4 µM [falling, partial curve, poor fit]
CCN(CC)c1ccc(-n2cc3c(=O)n(C)c(=O)n(C)c3c2)cc1	11.2 µM [falling, single point]	–
O=C(NNC(=O)c1cc(Cl)ccc1[N+](=O)[O-])c1csc(N2CCOCC2)n1	8.2 µM [falling, partial curve]	–
O=C(NNC(=O)c1ccc(Br)s1)c1cccc(Cl)c1	14.6 µM [falling, partial curve]	–
CCCCN(CCCC)CCCNC(=O)CC1Oc2ccc(C)cc2NC1=O (configuration not stated)	0.82 µM [rising, full curve, poor fit]	–
CCC(C)NC(=O)CSc1nc2cc3c(cc2c(=O)n1Cc1ccc(C(=O)NCCc2ccc(OC)c(OC)c2)cc1)OCO3 (configuration not stated)	35.5 µM [rising, single point]	–
COc1cc(/C=N/NC(=O)CCn2cnc(-c3ccccc3)c2-c2ccccc2)ccc1O	18.4 µM [falling, single point]	–
CCc1ccc(C(=O)Cc2cc3cccc(OC)c3oc2=O)cc1	0.794 µM [falling, full curve]	–
COc1ccc(CNn2c(-c3cccc(C)c3)nc3ccccc3c2=O)cc1OC	29.1 µM [rising, single point]	–
COc1cc(OC)cc(-c2cc3cc(F)ccc3cn2)c1	6.51 µM [falling, single point]	–
CCCN(CCC)C(=O)CSc1nc2n[nH]c(C)c2c(=N)n1-c1ccc(OC)cc1	28.2 µM [falling, single point]	–
COc1ccc(NC(=O)Cn2ncc(Cl)c(Cl)c2=O)cc1S(=O)(=O)N1CCOCC1	29.1 µM [falling, single point]	23.1 µM [rising, partial curve, poor fit]
CCOC(=O)CNC(=O)C1(c2ccccc2)CCCC1	0.164 µM [falling, full curve, poor fit]	–
Cc1ccc2nc(-c3ccc(Br)o3)oc(=O)c2c1	2.31 µM [falling, full curve]	–
N/C(Cc1ccc(Cl)cc1Cl)=N\OC(=O)c1ccc(Br)o1	10 µM [rising, single point]	–
CS(=O)(=O)n1nc(-c2ccc(Cl)cc2)nc1SCc1ccccc1	2.91 µM [rising, partial curve]	–
CN(Cc1c(C(=O)N(C)Cc2ccccc2)nc2ccccn12)CC1Cc2ccccc2O1 (configuration not stated)	2.24 µM [falling, single point]	–
CCN(C(=O)COC(=O)c1cc(OC)ccc1Br)C1CCS(=O)(=O)C1 (configuration not stated)	2.59 µM [falling, partial curve]	–
Cc1ccc(/C([O-])=C(/C(=S)Nc2ccc(SC(F)F)cc2)[n+]2ccccc2)cc1[N+](=O)[O-]	7.94 µM [rising, partial curve]	–
CSCc1ccc(C(=O)Nc2cc(C)cc(C)c2)cc1	20.6 µM [falling, partial curve, poor fit]	–
COc1ccccc1/C=C/C=N/NC(=O)CC1C(=O)NN=C1C (configuration not stated)	8.91 µM [falling, partial curve]	–

SMILES	AC50 [1]	AC50 [2]
CC(C)c1onc(C(=O)N2C(C)CCCC2C)c1[N+](=O)[O-] (configuration not stated)	3.26 µM [rising, partial curve, poor fit]	–
O=C(Nc1c(F)cc(F)cc1Br)C1CCCO1 (configuration not stated)	18.4 µM [rising, single point]	–
CCN1C(=O)C(CC(=O)Nc2ccc(OC)cc2)N(CCc2ccccc2F)C1=S (configuration not stated)	28.2 µM [falling, single point]	–
O=[N+]([O-])c1ccc(S(=O)(=O)N2CCN(c3ccc(N4CCOCC4)nn3)CC2)cc1	2.91 µM [rising, partial curve, poor fit]	–
COc1cccc(-c2nn(C)c3sc(C(=O)NCc4ccco4)cc23)c1	0.517 µM [falling, full curve, poor fit]	–
Cc1cccc(CSCc2ccc(C(=O)NCCc3ccccc3)o2)c1	10 µM [rising, partial curve, poor fit]	–
CC(C)c1ccc2oc3nc(N)c(C(=O)O)cc3c(=O)c2c1	35.5 µM [falling, single point]	–
C/C(Cc1ccccc1)=N\NC(=O)CNC(=O)c1ccccc1O	35.5 µM [falling, single point]	–
Cc1ccccc1NC(=O)CNc1ccccc1C(=O)NCc1ccco1	2.59 µM [falling, full curve, poor fit]	–
O=C1N=C(N2CCN(c3ccccc3)CC2)S/C1=C/c1cccs1	0.651 µM [rising, full curve]	–
Cc1csc(SCC(=O)N2CCCC2)n1	14.1 µM [rising, partial curve, poor fit]	–
Cc1cccc(NC(=O)CSc2nncn2-c2ccccn2)c1	35.5 µM [falling, single point]	–
CC(=O)N(Cc1ccccc1)c1ncc2c(n1)c(=O)c(C#N)c1ccccn12	29.1 µM [falling, single point]	–
Cc1ccccc1OC1C(=O)N(CC2CCCO2)C1c1ccc2c(c1)OCO2 (configuration not stated)	35.5 µM [falling, single point]	–
CSc1nsc(SCC(=O)Nc2ccc(C(=O)O)cc2)n1	8.91 µM [falling, single point]	–
O=C(/C=C/c1ccccc1)Nc1cccnc1	12.6 µM [falling, partial curve]	–
COC(=O)Nc1ccccc1C(=O)N1CCCCC1	29.1 µM [rising, single point]	–
CCOC(=O)c1c(NC(=O)COC(=O)/C=C/c2ccccc2)sc(C(=O)NC)c1C	18.4 µM [rising, partial curve, poor fit]	–
COC(=O)c1cn(C(=O)c2ccc(Cl)cc2)c2ccccc12	2.24 µM [rising, full curve]	–
Cc1[nH]c2ccccc2c1SCCNC(=O)c1ccc(Br)o1	16.4 µM [falling, partial curve]	–
O=C1OC(/C=C/c2ccccc2)=NC/1=C/c1ccco1	29.1 µM [falling, single point]	–

Whole records, looked up by structure.
COC(=O)c1cn(C(=O)c2ccc(Cl)cc2)c2ccccc12 is listed with AC50 [1]: 2.24 µM [rising, full curve]
CCN1C(=O)C(CC(=O)Nc2ccc(OC)cc2)N(CCc2ccccc2F)C1=S (configuration not stated) is listed with AC50 [1]: 28.2 µM [falling, single point]
Cc1ccccc1OC1C(=O)N(CC2CCCO2)C1c1ccc2c(c1)OCO2 (configuration not stated) is listed with AC50 [1]: 35.5 µM [falling, single point]
CC(=O)N(Cc1ccccc1)c1ncc2c(n1)c(=O)c(C#N)c1ccccn12 is listed with AC50 [1]: 29.1 µM [falling, single point]

Source: PubChem BioAssay AID493014 (National Center for Advancing Translational Sciences (NCATS), 2011)
